Values quoted from earlier work, collected in patent US5693312A, “Pharmaceutical composition having analgesic activity” (Zambon Group S.p.A., priority 1993, dated 1997).

Conditions: oral, daily doses of 500-1500 mg

In the case of COc1ccc2cc([C@H](C)C(=O)O)ccc2c1 [Naproxen, (S)-2-(6-methoxy-2-naphthyl)propionic acid], the “time to reach maximum plasmatic concentration” value is given as “about two”.
